In experiment [1] the target is HA-tagged full-length S5a (human) (UniProt P55036). In words: co-IP; A375 cells infected with adenovirus, lysed under native conditions that keep the 26S proteasome intact (20 mM Tris pH 7.5, 0.1% NP-40, 5 mM MgCl2, 20% glycerol, 2 mM ATP, 1 mM DTT); anti-HA agarose beads, 1 h at 4 °C; western blot for proteasomal subunits. For orientation: A western blot detects proteins with antibodies after separation by electrophoresis.

By UniProt entry, the sequences of proteins in these tests, tags left out.
UniProt Q16186: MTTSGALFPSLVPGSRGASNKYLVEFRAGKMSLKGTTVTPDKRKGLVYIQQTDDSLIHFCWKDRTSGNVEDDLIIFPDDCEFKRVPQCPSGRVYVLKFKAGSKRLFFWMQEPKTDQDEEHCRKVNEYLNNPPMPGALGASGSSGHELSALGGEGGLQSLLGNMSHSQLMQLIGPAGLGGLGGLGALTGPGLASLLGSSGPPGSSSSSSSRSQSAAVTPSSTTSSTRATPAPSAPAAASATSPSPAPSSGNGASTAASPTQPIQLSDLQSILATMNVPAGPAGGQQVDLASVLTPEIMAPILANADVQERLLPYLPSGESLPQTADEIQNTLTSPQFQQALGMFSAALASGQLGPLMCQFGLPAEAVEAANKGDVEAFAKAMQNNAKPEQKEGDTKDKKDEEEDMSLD
UniProt Q13200: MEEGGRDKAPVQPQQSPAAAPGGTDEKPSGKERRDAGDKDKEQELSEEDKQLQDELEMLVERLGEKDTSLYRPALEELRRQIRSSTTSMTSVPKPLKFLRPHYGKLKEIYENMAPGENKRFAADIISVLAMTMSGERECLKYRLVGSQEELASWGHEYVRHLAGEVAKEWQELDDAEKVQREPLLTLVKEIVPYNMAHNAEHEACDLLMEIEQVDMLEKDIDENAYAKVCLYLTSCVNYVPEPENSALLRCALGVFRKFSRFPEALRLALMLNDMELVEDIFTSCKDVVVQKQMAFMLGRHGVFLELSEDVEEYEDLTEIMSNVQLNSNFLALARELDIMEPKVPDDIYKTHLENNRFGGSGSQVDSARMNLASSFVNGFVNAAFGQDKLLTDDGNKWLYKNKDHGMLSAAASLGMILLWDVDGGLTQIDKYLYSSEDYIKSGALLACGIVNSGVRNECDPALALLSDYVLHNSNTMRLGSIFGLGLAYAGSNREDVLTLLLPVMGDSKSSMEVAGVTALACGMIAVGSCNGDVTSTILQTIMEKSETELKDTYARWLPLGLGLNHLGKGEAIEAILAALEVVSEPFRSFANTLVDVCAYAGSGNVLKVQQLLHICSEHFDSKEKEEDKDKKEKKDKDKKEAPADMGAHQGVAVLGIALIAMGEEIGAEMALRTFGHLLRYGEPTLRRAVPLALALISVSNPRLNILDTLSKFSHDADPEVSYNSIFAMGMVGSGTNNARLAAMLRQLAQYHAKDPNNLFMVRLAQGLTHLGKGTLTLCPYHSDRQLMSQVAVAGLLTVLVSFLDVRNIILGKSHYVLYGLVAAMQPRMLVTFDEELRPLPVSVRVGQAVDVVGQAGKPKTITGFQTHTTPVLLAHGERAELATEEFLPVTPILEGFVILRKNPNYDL
UniProt P62191: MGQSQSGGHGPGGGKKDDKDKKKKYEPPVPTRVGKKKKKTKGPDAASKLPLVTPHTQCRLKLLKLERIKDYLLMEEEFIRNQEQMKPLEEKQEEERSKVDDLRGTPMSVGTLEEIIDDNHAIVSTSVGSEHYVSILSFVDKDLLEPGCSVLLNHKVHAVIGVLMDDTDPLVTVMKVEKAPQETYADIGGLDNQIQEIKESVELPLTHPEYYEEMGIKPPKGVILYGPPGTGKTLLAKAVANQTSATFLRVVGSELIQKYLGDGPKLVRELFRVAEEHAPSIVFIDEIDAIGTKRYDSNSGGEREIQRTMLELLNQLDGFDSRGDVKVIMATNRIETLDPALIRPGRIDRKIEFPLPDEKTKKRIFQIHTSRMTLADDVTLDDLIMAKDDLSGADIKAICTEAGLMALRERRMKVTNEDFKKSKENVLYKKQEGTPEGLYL

The target of experiment [2] is HA-tagged S5aΔUIM (residues 1 to 195 of S5a, lacks both UIMs) (human) (UniProt P55036). The description is as above.

These are yes or no findings as the source states them, for the method shown. Binding seen in cells or lysates may run through a third protein. Some binding calls cover weakened binding; strength is not graded here.

Turning to “ADRM1/Rpn13 (19S base) (from UniProt Q16186 1-407)”, the binding entry in experiment [1] and in experiment [2] was “binds” in each case.

Take “S2/PSMD2/Rpn1 (19S base) (from UniProt Q13200 1-908)”: the binding result in experiment [1] and in experiment [2] was “binds” each time.

For the substance “S4/PSMC1/Rpt2 (19S base) (from UniProt P62191 1-440)”, the binding result in experiment [1] and in experiment [2] was “binds” in each case.

(Values after publication PMC4051618.)
